Here are results for two molecules from patent US20080108546A1.

By UniProt entry, the sequences of proteins in these tests, tags left out. Where a name states a change or a piece, a line headed by the entry shows the natural chain unless it says otherwise.
UniProt P29466: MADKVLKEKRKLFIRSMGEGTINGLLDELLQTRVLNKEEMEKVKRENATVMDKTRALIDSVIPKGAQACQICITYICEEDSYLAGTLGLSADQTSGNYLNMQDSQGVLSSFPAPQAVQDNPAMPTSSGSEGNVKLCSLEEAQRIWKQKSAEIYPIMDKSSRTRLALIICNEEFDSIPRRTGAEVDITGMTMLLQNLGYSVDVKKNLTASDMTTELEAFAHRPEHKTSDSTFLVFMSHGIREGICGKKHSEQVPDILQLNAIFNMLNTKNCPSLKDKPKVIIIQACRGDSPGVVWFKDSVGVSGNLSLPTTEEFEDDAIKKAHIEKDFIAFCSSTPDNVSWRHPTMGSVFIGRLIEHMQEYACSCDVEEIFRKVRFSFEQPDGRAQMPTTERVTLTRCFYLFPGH

Test in all cases: co-immunoprecipitation from 293T lysates, anti-Flag IP, anti-E immunoblot
For orientation: Immunoblotting shows a protein as a band on a membrane.

In experiment [1] the target is T1, E-epitope tagged INCA (human), Q5XLA6.
T1 chain: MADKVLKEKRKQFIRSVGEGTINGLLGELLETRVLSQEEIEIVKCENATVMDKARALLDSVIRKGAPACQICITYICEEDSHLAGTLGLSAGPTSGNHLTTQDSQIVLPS
Particulars: remark: other sources report otherwise.

The target in experiment [2] is T2, E-epitope tagged ICEBERG (human) (UniProt P57730).
T2 sequence (looked up): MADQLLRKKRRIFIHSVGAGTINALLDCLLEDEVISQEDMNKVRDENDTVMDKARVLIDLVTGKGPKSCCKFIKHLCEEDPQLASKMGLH

The target in experiment [3] is E-epitope tagged human procaspase-1 C285A (enzymatically inactive mutant) (human) (UniProt P29466).
Experiment [4] deals with T3, E-epitope tagged COP/Pseudo-ICE (human) (UniProt Q5EG05).
T3 sequence (looked up): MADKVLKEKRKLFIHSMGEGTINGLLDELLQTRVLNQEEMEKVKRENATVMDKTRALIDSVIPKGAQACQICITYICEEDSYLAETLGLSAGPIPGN

No constants are given. Whether binding was seen depends on the method and setting. Binding seen in cells or lysates may run through a third protein. Some binding calls cover weakened binding; strength is not graded here. Tags and fused reporters may be left off the sequences shown.

B1: Flag-tagged INCA (Inhibitory CARD), Q5XLA6 1-110 (protein, not shown: small tags and cut ends)
chain: T1 chain
With B1, in experiment [1], the binding entry is given as “binds”.

B2: Flag-tagged INCA (Inhibitory CARD) (protein, not shown: small tags and cut ends)
chain: T1 chain
In the case of B2, the binding entry in experiment [2], in experiment [3] and in experiment [4] was “binds” in each case.
